18 compounds from PubChem BioAssay AID2685 (National Center for Advancing Translational Sciences (NCATS), 2010) can be followed below.

As a reminder, the AC50 is the midpoint of the concentration-response curve, whichever way the signal moves.

The assay can be described thus: qHTS Assay for Lipid Storage Modulators in Drosophila S3 Cells.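 As to cell number change: cells counted by Cell Tracker Red CMTPX staining in the red channel.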 The settings on record: BODIPY lipid droplet fluorescence, 18-24 h; for cell number change: measured here: cell count max response, cells fed with added oleic acid. The method, boiled down:
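Drosophila S3 cells got compounds at several concentrations plus oleic acid (400 uM solution). Laser-scanning cytometry with 488 nm excitation read lipid droplets at 500-530 nm and cells at 575-640 nm. Percent activity was relative to 20 uM Triacsin C.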

The mark [1] stands for this setting: measured here: cell number channel AC50, cells fed with added oleic acid.
Setting [2] is: measured here: lipid fluorescence (Fed channel) AC50, cells fed with added oleic acid.

The other results are listed elsewhere or left out. Further columns of the screen follow, without active or inactive calls. Compounds called inactive in the main read-out are mostly missing here. The note in brackets gives the kind of curve behind each potency; many fits are weak.

Consider `COCCn1c(SCC(=O)Nc2nc(C)c(Cl)cc2Cl)nc2ccccc21`, for which the cell number change is -9.45%. Under setting [1], the AC50 is 82 nM [rising, full curve, poor fit].

Take `Cc1cc(NC(=O)COC(=O)c2c(C)nn(-c3ccccc3)c2C)no1`: the cell number change is -21.6%. In addition, the AC50 under setting [2] was 164 nM [rising, full curve, poor fit].

With `CC(C)(C)c1ccc(C(=O)NNC(=S)NC(=O)c2cccnc2)cc1`, the cell number change is -13.2%.

Consider `Cn1ccnc1SCC(=O)Nc1cccc2ccccc12`, for which the cell number change stood at 42.4%. In addition, the AC50 under setting [1] was 5800 nM [rising, single point]. Besides, the AC50 under setting [2] is 461 nM [falling, partial curve, poor fit].

For the compound `CC(=O)c1ccc(S(=O)(=O)Nc2ccc(-n3cnnn3)cc2)cc1`, the cell number change is -3.55%. Besides, under setting [2], the AC50 was 29100 nM [rising, single point].

As to `CC(C)C(=O)N1CCN(C2=NS(=O)(=O)c3ccccc32)CC1`, the cell number change was -7.73%.

Consider `O=C(NC1c2ccccc2-c2ccccc21)c1ccco1`, for which the cell number change amounted to 18.7%.

As to `CCc1ccc(NC(=O)CSc2nc3ccccc3nc2N2CCCC2)cc1`, the cell number change is 13.8%. Also, the AC50 under setting [2] was 29100 nM [falling, single point].

With `CN(C)CCCNC(=O)c1ccccn1`, the cell number change is -134%.

As to `CCOC(=O)C(=O)Nc1nnc(SCc2ccc(F)cc2)s1`, the AC50 under setting [2] was 1160 nM [falling, full curve].

`O=C(c1cc(-c2cccc(O)c2)on1)N1CCCCCC1`: the cell number change stood at 20%. The AC50 under setting [2] was 29100 nM [falling, single point].

Regarding `Nc1c(S(=O)(=O)c2cc(Cl)ccc2Cl)c2nc3ccccc3nc2n1CCN1CCOCC1`, the cell number change was determined as 23.9%. Moreover, the AC50 under setting [2] was 820 nM [rising, full curve].

As for `O=C(Nc1nc2ccccc2s1)c1ccc(Cl)s1`, the cell number change is -41.8%. Under setting [1], the AC50 is 2590 nM [falling, partial curve, poor fit]. For the same compound, under setting [2], the AC50 was 6510 nM [falling, single point].

For the compound `Cc1ccc(S(=O)(=O)N/N=C\c2ccc(Cl)c([N+](=O)[O-])c2)cc1`, the AC50 under setting [2] is 651 nM [falling, single point].

In the case of `COc1ccc2nc(NC(=O)C3COc4ccccc4O3)sc2c1` (stereo unspecified), the AC50 under setting [2] is 3660 nM [rising, partial curve].

For `Cn1c(CNC(=O)OC(C)(C)C)nnc1SCC(=O)N1CCOCC1`, the cell number change is -11.5%. Also, the AC50 under setting [2] was 1.3 nM [falling, full curve, poor fit].

For `CCOC(=O)c1oc2ccc(S(=O)(=O)N3CCOCC3)cc2c1C`, the cell number change was found to be 30.3%. Further, the AC50 under setting [1] was 7310 nM [rising, partial curve, poor fit].

As to `O=C(NCC1CCCCN1)c1cc(OCC(F)(F)F)ccc1OCC(F)(F)F` (stereo unspecified), the cell number change is 3.17%. Also, under setting [2], the AC50 was 116 nM [rising, full curve, poor fit].
